From PubChem BioAssay AID504465 (National Center for Advancing Translational Sciences (NCATS), 2011)
Out of some 2,100 compounds screened, about 210 (10%) were called active. The source calls these results inconclusive, neither active nor inactive. The call rests on the fitted dose curve; in most records, active means well fitted inhibition curve with a large enough effect; inconclusive means small, poorly fitted or top-dose-only effect, or effect the other way; inactive means no such curve, though single readings can be large or run the other way.

assay: IN Cell qHTS Assay for Inhibitors of the mTORC1 Signaling Pathway in MEF (Tsc2-/-, p53-/-) Cells: Sytravon; conditions: phospho-rpS6 immunofluorescence, 24 h; further: nearly all actives have a fitted effect of over 60% in size
Excerpt: NIH Molecular Libraries Probe Production Centers Network [MLPCN] NIH Chemical Genomics Center [NCGC] MLPCN Grant: NS059428-01 Assay Submitter (PI): Blenis, John; Hoffman, Greg; Harvard University NCGC Assay Overview: Thee mammalian target of rapamycin (mTOR) is an intracellular serine/threonine kinase Aberrant regulation of mTOR signaling plays a causative role in a number of human diseases, including cancer, benign tumors such as lymphangioleiomyomatosis (LAM) and Tuberous Sclerosis Complex (TSC), and metabolic diseases such as diabetes and obesity. This project aims to identify inhibitors of ribosomal protein S6 (rpS6) phosphorylation. The phosphorylation of rpS6 is a key event downstream of mTOR activation. […]
NCGC IN Cell Assay Protocol: For quantitative high throughput analysis of mTORC1 signaling, we developed a cell-based assay for immuno-fluorescence based detection of rpS6 phosphorylation on the Acumen Explorer that will be used a platform for the primary small molecule screen. […] The fluorescence emission filters used were HQ460/40M and HQ535/50M for the Hoechst and Alexa-488 cytoplasmic stains, respectively. The normalized phospho-S6 staining is calculated as the ratio of […] for the single concentration rapamycin control (7.5 nM) and DMSO columns. […]
Potency means the concentration at half of the fitted maximal effect.

SMILES	Potency
CN(C)C1(CNC(=O)c2ccc(C(C)(C)C)cc2)CCCCC1	inconclusive: 1.17 µM
